Data taken from PubChem BioAssay AID504847 (National Center for Advancing Translational Sciences (NCATS), 2011).
“And” between values parts separate entries of the source, which are not always exact repeats. Identical values can stand only once. The whole screen tested about 400,000 compounds, of which about 3,700 (0.93%) were called active. The inconclusive results got no clear call from the source; some entries with a clear call stand among them for comparison. The call rests on the fitted dose curve; in most records, active means well fitted inhibition curve with a large enough effect; inconclusive means small, poorly fitted or top-dose-only effect, or another doubt; inactive means no such curve, though single readings can be large or run the other way. Potencies beside an inconclusive call are fits to weak or partial responses and may not hold up. Some structures have more than one record in an assay (separate samples or runs), and their calls can disagree.

By UniProt entry, the sequences of proteins in these tests, tags left out. Where a name states a change or a piece, a line headed by the entry shows the natural chain unless it says otherwise.
UniProt P11473: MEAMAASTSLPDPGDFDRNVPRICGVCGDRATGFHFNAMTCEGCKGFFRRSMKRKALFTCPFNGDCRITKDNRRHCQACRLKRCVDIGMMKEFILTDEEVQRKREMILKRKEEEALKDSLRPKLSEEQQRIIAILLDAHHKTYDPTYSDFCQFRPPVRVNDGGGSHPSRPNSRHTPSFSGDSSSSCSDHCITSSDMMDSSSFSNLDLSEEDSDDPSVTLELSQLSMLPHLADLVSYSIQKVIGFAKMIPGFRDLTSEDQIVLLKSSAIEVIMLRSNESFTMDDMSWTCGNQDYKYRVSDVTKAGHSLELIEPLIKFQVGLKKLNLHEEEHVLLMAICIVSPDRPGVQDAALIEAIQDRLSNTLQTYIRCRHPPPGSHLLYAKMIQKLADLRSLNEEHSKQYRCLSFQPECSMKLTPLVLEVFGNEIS

molecular target: Vitamin D3 receptor (Homo sapiens) (UniProt P11473); experiment: Inhibitors of the vitamin D receptor (VDR): qHTS; conditions: VDR-SRC2-3 peptide fluorescence polarization, 2 h; max response, negative = inhibition: hits give low values
How it was run: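 After 23 nl compound addition and a short centrifugation, plates sat for 2 hours at ambient temperature; polarization of fluorescence then indicated loss of VDR binding to peptide SRC2-3.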
On the % scale 0 is the no-effect control and ±100 the full control effect; potency means the concentration at half of the fitted maximal effect.

Structure (SMILES)	max response, negative = inhibition	Potency
CCCCn1c(O)c(C=Nc2c(C)n(C)n(-c3ccccc3)c2=O)c(=O)[nH]c1=O	inactive: -2.48%	
O=C1NC(=O)C(=Cc2ccc(OCCOc3ccc([N+](=O)[O-])cc3)cc2)C(=O)N1		active: 50.1 µM
C/C1=C/C(=O)O[C@@H]2C[C@@H](CC[C@H](C)/C=C\CC1)O[C@@](O)(C1CSC(=O)N1)C2 (stereo partly specified)		inconclusive: 50.1 µM [inhibitor, partial curve, poor fit] and inconclusive: 44.7 µM [inhibitor, partial curve, poor fit]
Cc1ccc(/C=C2\C(=O)NC(=O)N(CCc3ccc(F)cc3)C2=O)o1	inactive: -25.4%	
O=C(c1cc2cc(F)ccc2[nH]1)N1CCC2(CC1)OCCO2	inactive: -8.11%	
CC1CC2OC2/C=C\C=C/C(=O)Cc2c(Cl)c(O)cc(O)c2C(=O)O1 (stereo unspecified)		active: 44.7 µM
CC/C=C\C/C=C\C/C=C\C/C=C\C/C=C\CCCC(=O)NC(C)C(=O)O (stereo unspecified)		inconclusive: 39.8 µM [inhibitor, partial curve, poor fit]
COC(=O)c1c(C)n(Cc2ccco2)c2ccc(O)cc12	inactive: 7.07%	
Cc1ccccc1N1C(=O)NC(=O)/C(=C\c2cc(Br)c(N3CCOCC3)o2)C1=O		inconclusive: 89.1 µM [inhibitor, single point]
S=P(Nn1cnnc1)(c1ccc(Br)cc1)c1ccc(Br)cc1		inconclusive: 89.1 µM [inhibitor, single point]
CC(C)CCC(=O)OC1CCC2C3CCC4=CC(=O)CC[C@]4(C)C3CC[C@]12C (stereo partly specified)		inconclusive: 50.1 µM [inhibitor, partial curve, poor fit]
O=C1NC(=O)[C@]2(Cc3ccccc3N3CCN(c4ccccc4)CC32)C(=O)N1Cc1ccccc1 (stereo partly specified)		inconclusive: 70.8 µM [inhibitor, partial curve]
Cc1c(O)c(O)cc2c1CC=C1[C@]3(C)CC[C@]4(C)CC[C@@](C)(C(=O)O)CC4[C@]3(C)CC[C@]12C (stereo partly specified)		inconclusive: 100 µM [inhibitor, single point]
O=C1NC(=S)N(c2ccccc2F)C(=O)/C1=C\c1cccs1		inconclusive: 79.4 µM [inhibitor, partial curve]
COc1ccc2c(c1)NP(=S)(Oc1ccccc1)N2 (stereo unspecified)		inconclusive: 89.1 µM [inhibitor, single point]
CC1CC(Cl)CCC1C(=O)OC(C)(C)C (stereo unspecified)	inactive: 15.8%	
O=C(O)c1cc[c]([Hg][Cl])cc1		active: 20 µM and active: 10 µM
COc1ccc(N/N=C/c2c(O)n(-c3ccc(C)c(C)c3)c(=O)[nH]c2=O)cc1		inconclusive: 56.2 µM [inhibitor, partial curve, poor fit]
CN1C(=O)C(Cc2cccc3ccccc23)C(=O)N(C)C1=O		inconclusive: 56.2 µM [inhibitor, partial curve, poor fit]
C[C@]12C/C(=C/O)C(=O)C[C@@H]1CC[C@@H]1[C@@H]2CC[C@@]2(C)[C@H]1CC[C@]2(C)O		inconclusive: 50.1 µM [inhibitor, partial curve]
O=C1NC(=O)N(c2ccc3c(c2)OCO3)C(=O)/C1=C/c1ccc(N2CCCCC2)o1	inactive: -7.49%	
CCOC(=O)c1c(NC(=O)c2ccc(OC)cc2)sc2c1CCCCC2		inconclusive: 70.8 µM [inhibitor, partial curve, poor fit]

Structure (SMILES)	max response, negative = inhibition	Potency
Cc1cc(/C=C2\C(=O)NC(=O)N(c3ccc(Cl)cc3)C2=O)c(C)n1-c1sc2c(c1C#N)CCCC2		inconclusive: 14.1 µM [inhibitor, full curve]
NC1=N[C@H](O)[C@H]2C3O[C@]4(O)O[C@H](C(O)[C@@]2(N1)[C@@H]4O)C3(O)CO (stereo partly specified)	inactive: -5.52%	
CCOP(=S)(OCC)Oc1ncn(-c2ccccc2)n1		active: 14.1 µM
COC(=O)c1ccc(NC(=O)NC(=O)Oc2ccccc2)cc1		inconclusive: 3.98 µM [inhibitor, partial curve, poor fit]
CCCCn1c(O)c(C(=O)/C=C/c2ccc3c(c2)OCO3)c(=O)[nH]c1=O		inconclusive: 17.8 µM [inhibitor, full curve]
CCN(CC)C(=O)c1ccc2c(c1)C1C=CCC1C(C(=O)O)N2 (stereo unspecified)		inconclusive: 50.1 µM [inhibitor, partial curve, poor fit]
C#CCOc1ccc(OC)cc1C(c1c(C)[nH][nH]c1=O)c1c(C)[nH][nH]c1=O		inconclusive: 89.1 µM [inhibitor, single point]
O=C1NC(=O)N(Cc2ccco2)C(=O)/C1=C/c1cccn1CCOc1ccccc1Cl		inconclusive: 100 µM [inhibitor, single point]
Cn1cccc1C(=O)OCC(=O)NCc1cccs1		inconclusive: 89.1 µM [inhibitor, partial curve, poor fit]
O=C(Oc1ccccc1)N1CCC2(CCCN(Cc3ccccc3)C2)CC1		inconclusive: 50.1 µM [inhibitor, partial curve]
CN1CCC(O)(c2cccs2)C(C(=O)c2cccs2)C1 (stereo unspecified)		inconclusive: 79.4 µM [inhibitor, partial curve, poor fit]
CCC(=NCc1ccco1)c1c(O)n(C)c(=O)n(C)c1=O	inactive: 6.68%	
CCOC(=O)N(c1ccccc1)P1(=S)OCCO1		active: 79.4 µM
CCN1C[C@@]2(COC)C3[C@@H](OC)C4[C@@H]1C3([C@@H]1C[C@]3(O)[C@H](OC(=O)c5ccccc5)[C@@H]1[C@]4(OC(C)=O)[C@@H](O)[C@@H]3OC)[C@H](OC)C[C@H]2O	inactive: -1.46%	
CS(=O)c1ccc(-c2nc(-c3ccc(F)cc3)c(-c3ccncc3)[nH]2)cc1 (stereo unspecified)		inconclusive: 70.8 µM [inhibitor, partial curve, poor fit]
N#CC(C#N)=Cc1cc(O)c(O)c(O)c1		active: 22.4 µM
O=C1NC(=O)N(c2ccc3c(c2)OCO3)C(=O)/C1=C/c1ccsc1		inconclusive: 56.2 µM [inhibitor, partial curve, poor fit]
CCCCCn1c(NC(=O)c2ccco2)c(C(=O)OCC)c2nc3ccccc3nc21		active: 5.01 µM
O=C1C2CC=CCC2C(=O)N1SC(Cl)(Cl)Cl (stereo unspecified)		active: 3.98 µM
Cn1c(O)c(C(=Nc2ccccc2)SCc2ccc(Cl)cc2)c(=O)n(C)c1=O		inconclusive: 100 µM [inhibitor, partial curve, poor fit]
CC1CCN(C(CC(=O)c2ccccc2)C(=O)c2ccccc2)CC1 (stereo unspecified)		active: 25.1 µM
CC1=CC(=O)NP(=O)(Oc2ccc3ccccc3c2)N1 (stereo unspecified)	inactive: -9.68%	

Structure (SMILES)	max response, negative = inhibition	Potency
CCOC(=O)C(SP(=S)(OC)OC)c1ccccc1 (stereo unspecified)		active: 3.55 µM
O=C1NC(=O)C(=Cc2ccc(Oc3ccc([N+](=O)[O-])cc3)cc2)C(=O)N1		active: 31.6 µM
CC/C=C\C/C=C\C/C=C\C/C=C\C/C=C\CCCC(=O)NCCCC(=O)O	inactive: -9.76%	
Cc1ccc(N2C(=O)NC(=O)/C(=C\c3cc(C)n(-c4sc5c(c4C#N)CCCC5)c3C)C2=O)cc1		active: 44.7 µM
CC[C@@]1(O)CC(O)c2c(cc3c(c2O)C(=O)c2c(O)ccc(O)c2C3=O)C1C(=O)OC (stereo partly specified)		inconclusive: 79.4 µM [inhibitor, partial curve, poor fit]
CCCCC1C(=O)NC(=S)N(C)C1=O (stereo unspecified)		inconclusive: 89.1 µM [inhibitor, single point]
Cc1ccnc(-n2c(C)cc(/C=C3\C(=O)NC(=S)N(C)C3=O)c2C)c1		active: 39.8 µM
CCC(C)NC(=O)c1c(N)n(CCCOC)c2nc3ccccc3nc12 (stereo unspecified)	inactive: -25.1%	
c1ccc(N2CCC3(CCNCC3)CC2)nc1		inconclusive: 44.7 µM [inhibitor, partial curve]
O=C(/C=C/C=C/c1ccccc1)CC1(O)C(=O)Nc2ccccc21 (stereo unspecified)		inconclusive: 89.1 µM [inhibitor, single point]
Cc1cccc(N2C(=O)NC(=O)/C(=C/c3cc4c(cc3[N+](=O)[O-])OCO4)C2=O)c1		inconclusive: 25.1 µM [inhibitor, single point]
Cc1ccc2c(c1)c(C1=c3ccccc3=NC1=O)c(O)n2C		inconclusive: 50.1 µM [inhibitor, partial curve, poor fit]
Cc1ccc(N2C(=O)NC(=O)/C(=C\c3cn(CC(=O)O)c4ccccc34)C2=O)cc1	inactive: -19.1%	
CN1CCc2nc(SCc3ccccc3Br)c(C#N)cc2C1	inactive: -13%	
Cc1ccccc1-c1nc2ccccc2c(=O)n1C		inconclusive: 89.1 µM [inhibitor, single point]
O=C(O)c1cc(O)c(O)c(O)c1		active: 50.1 µM
N#Cc1ccc(NC(=O)CN2CCCC2)cc1Cl	inactive: -11.8%	
Cc1sc2ncnc(N3CCN(S(=O)(=O)c4ccc(Br)cc4)CC3)c2c1C		inconclusive: 50.1 µM [inhibitor, partial curve]
Cc1ccccc1-n1c(O)c(/C=N/NC(=O)c2ccccc2O)c(=O)[nH]c1=S		inconclusive: 39.8 µM [inhibitor, single point]
C[C@H]1CCCC(=O)CCCCCc2cc(O)cc(O)c2C(=O)O1		inconclusive: 100 µM [inhibitor, partial curve, poor fit]
c1cnc(N2CCC3(CCNCC3)CC2)nc1		inconclusive: 79.4 µM [inhibitor, partial curve]
CN(C)C=C1C(=O)N(C2CCCCC2)C(=O)N(C2CCCCC2)C1=O		inconclusive: 22.4 µM [inhibitor, partial curve, poor fit]
